Here are results for two molecules from paper PMC11750563.

Protein sequences, listed by entry. Tags and fused reporters are not part of them.
UniProt Q08J23: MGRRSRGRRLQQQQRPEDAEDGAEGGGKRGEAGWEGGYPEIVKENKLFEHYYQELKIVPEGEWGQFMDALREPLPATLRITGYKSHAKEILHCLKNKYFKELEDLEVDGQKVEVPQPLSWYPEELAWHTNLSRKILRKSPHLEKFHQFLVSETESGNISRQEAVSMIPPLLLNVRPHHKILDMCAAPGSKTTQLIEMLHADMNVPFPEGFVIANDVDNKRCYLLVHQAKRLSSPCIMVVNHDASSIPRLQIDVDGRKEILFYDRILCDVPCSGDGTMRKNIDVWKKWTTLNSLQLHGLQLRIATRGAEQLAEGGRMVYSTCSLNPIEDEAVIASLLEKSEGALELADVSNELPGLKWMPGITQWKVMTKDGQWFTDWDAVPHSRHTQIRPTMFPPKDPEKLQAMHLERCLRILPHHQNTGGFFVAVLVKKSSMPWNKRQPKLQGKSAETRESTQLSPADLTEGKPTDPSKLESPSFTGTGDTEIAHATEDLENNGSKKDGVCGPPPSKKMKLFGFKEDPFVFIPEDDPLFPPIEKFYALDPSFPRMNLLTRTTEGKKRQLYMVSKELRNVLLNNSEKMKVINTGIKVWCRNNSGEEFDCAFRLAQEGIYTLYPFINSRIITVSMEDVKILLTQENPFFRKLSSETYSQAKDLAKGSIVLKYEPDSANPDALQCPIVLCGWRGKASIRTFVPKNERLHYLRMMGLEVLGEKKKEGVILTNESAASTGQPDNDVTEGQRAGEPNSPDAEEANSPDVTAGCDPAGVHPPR

The experiment has as its target Flag-NSUN2 (NOP2/Sun domain family member 2) (UniProt Q08J23). In words: co-IP; Flag-tagged bait from transfected HEK293 lysate on Flag-M2 beads, 2 h at 4 °C; IP buffer 150 mM NaCl, 50 mM Tris-HCl pH 7.5, 1 % NP-40, 5 mM EDTA; endogenous partner detected by western blotting; cells with or without 10 or 20 mM lactate for 3 h (interaction strengthened by lactate). Background: A western blot detects proteins with antibodies after separation by electrophoresis.

These are yes or no findings as the source states them, for the method shown. In cells and extracts the contact can be indirect. Some results given as binding are weak or reduced against the parent protein; the word gives no strength.

B1: glutamate-cysteine ligase catalytic subunit (GCLC), endogenous (enzyme, UniProt P48506 1-637)
chain: MGLLSQGSPLSWEETKRHADHVRRHGILQFLHIYHAVKDRHKDVLKWGDEVEYMLVSFDHENKKVRLVLSGEKVLETLQEKGERTNPNHPTLWRPEYGSYMIEGTPGQPYGGTMSEFNTVEANMRKRRKEATSILEENQALCTITSFPRLGCPGFTLPEVKPNPVEGGASKSLFFPDEAINKHPRFSTLTRNIRHRRGEKVVINVPIFKDKNTPSPFIETFTEDDEASRASKPDHIYMDAMGFGMGNCCLQVTFQACSISEARYLYDQLATICPIVMALSAASPFYRGYVSDIDCRWGVISASVDDRTREERGLEPLKNNNYRISKSRYDSIDSYLSKCGEKYNDIDLTIDKEIYEQLLQEGIDHLLAQHVAHLFIRDPLTLFEEKIHLDDANESDHFENIQSTNWQTMRFKPPPPNSDIGWRVEFRPMEVQLTDFENSAYVVFVVLLTRVILSYKLDFLIPLSKVDENMKVAQKRDAVLQGMFYFRKDICKGGNAVVDGCGKAQNSTELAAEEYTLMSIDTIINGKEGVFPGLIPILNSYLENMEVDVDTRCSILNYLKLIKKRASGELMTVARWMREFIANHPDYKQDSVITDEMNYSLILKCNQIANELCECPELLGSAFRKVKYSGSKTDSSN
B1: the binding entry is given as “no binding”.

B2: N-α-acetyltransferase 10 (NAA10), endogenous (enzyme, UniProt P41227 1-235)
chain: MNIRNARPEDLMNMQHCNLLCLPENYQMKYYFYHGLSWPQLSYIAEDENGKIVGYVLAKMEEDPDDVPHGHITSLAVKRSHRRLGLAQKLMDQASRAMIENFNAKYVSLHVRKSNRAALHLYSNTLNFQISEVEPKYYADGEDAYAMKRDLTQMADELRRHLELKEKGRHVVLGAIENKVESKGNSPPSSGEACREEKGLAAEDSGGDSKDLSEVSETTESTDVKDSSEASDSAS
As for B2, the binding entry was “binds”.
